Source: publication PMC3397530
Results are given in words; binding and its absence hold for the method and conditions named.

Molecular target: hypothetical protein CV_2116 from Chromobacterium violaceum (Chromobacterium violaceum) (UniProt Q7NW74)
Experiment: NMR 15N T1/T2 relaxation (rotational correlation time); 1D 15N-edited T1 and T2 experiments of the NC sample, 600 MHz, 298 K; tau-c 6.2 ± 0.5 ns compared with a curve of molecular weight versus tau-c of known monomeric proteins; NMR buffer 10 mM Tris pH 7.0, 300 mM NaCl, 10 mM DTT; both purified

- binding: no binding
B1: hypothetical protein CV_2116 from Chromobacterium violaceum (protein, UniProt Q7NW74 1-82)
chain: MNVAHYRGYEIEPGHQYRDDIRKYVPYALIRKVGVPDRTPIPATYPEFYDLEADAERVSIACAKIIIDSHLDRHDQGLADLG
